Test results from paper PMC10063626.
Results are given in words; binding and its absence hold for the method and conditions named. In cells and extracts the contact can be indirect. Some binding calls cover weakened binding; strength is not graded here. For part of these data: Where a sequence is shown, tags or fusion partners need not be part of it. One block for each molecule: values may come before it.

Chains of the proteins cited; added tags and fusions are not shown.
UniProt P01106: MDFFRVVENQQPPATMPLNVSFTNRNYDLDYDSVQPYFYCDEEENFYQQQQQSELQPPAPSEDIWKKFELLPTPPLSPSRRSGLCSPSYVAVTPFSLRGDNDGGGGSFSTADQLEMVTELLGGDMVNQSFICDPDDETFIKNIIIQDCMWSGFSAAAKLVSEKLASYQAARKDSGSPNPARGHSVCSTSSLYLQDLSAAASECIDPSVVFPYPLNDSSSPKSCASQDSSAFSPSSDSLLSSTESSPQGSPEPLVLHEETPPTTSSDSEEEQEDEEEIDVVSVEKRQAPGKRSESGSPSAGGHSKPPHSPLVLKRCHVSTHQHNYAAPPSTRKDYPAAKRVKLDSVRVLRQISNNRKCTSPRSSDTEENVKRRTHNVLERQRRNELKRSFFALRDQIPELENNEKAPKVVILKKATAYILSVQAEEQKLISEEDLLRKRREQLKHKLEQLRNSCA

Key:
Flag-CTCF = biological target: T1, Flag-CTCF (UniProt P49711); assay: co-IP; 22Rv1 cells expressing GFP-MYC and Flag-CTCF; anti-Flag beads; input and IPed proteins blotted with anti-GFP and anti-Flag
T1 sequence: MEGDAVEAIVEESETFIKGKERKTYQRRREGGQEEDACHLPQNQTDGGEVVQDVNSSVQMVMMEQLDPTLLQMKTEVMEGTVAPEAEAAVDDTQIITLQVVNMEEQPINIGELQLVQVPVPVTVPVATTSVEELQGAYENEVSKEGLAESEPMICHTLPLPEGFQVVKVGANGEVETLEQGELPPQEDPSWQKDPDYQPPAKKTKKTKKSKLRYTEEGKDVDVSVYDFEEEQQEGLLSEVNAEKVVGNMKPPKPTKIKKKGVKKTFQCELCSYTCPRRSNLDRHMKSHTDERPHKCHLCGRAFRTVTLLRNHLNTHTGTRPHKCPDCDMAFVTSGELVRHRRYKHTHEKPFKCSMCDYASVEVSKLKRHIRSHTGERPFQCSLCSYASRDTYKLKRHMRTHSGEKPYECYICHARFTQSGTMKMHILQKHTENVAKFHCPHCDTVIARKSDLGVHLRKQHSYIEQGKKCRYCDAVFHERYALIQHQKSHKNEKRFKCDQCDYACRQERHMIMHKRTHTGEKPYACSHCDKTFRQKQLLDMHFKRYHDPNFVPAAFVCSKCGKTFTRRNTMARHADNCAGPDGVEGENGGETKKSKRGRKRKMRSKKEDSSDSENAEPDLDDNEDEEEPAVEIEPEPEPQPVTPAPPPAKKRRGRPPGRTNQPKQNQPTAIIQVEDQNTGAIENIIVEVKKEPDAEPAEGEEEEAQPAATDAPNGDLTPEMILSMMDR

[1] = biological target: T2, CTCF (human (endogenous in 22Rv1)) (UniProt P49711); assay: proximity ligation; Duolink in situ PLA in fixed, permeabilised 22Rv1 cells; mouse anti-MYC (9E10) and rabbit anti-CTCF (D31H2); confocal microscopy, red spots
T2 sequence: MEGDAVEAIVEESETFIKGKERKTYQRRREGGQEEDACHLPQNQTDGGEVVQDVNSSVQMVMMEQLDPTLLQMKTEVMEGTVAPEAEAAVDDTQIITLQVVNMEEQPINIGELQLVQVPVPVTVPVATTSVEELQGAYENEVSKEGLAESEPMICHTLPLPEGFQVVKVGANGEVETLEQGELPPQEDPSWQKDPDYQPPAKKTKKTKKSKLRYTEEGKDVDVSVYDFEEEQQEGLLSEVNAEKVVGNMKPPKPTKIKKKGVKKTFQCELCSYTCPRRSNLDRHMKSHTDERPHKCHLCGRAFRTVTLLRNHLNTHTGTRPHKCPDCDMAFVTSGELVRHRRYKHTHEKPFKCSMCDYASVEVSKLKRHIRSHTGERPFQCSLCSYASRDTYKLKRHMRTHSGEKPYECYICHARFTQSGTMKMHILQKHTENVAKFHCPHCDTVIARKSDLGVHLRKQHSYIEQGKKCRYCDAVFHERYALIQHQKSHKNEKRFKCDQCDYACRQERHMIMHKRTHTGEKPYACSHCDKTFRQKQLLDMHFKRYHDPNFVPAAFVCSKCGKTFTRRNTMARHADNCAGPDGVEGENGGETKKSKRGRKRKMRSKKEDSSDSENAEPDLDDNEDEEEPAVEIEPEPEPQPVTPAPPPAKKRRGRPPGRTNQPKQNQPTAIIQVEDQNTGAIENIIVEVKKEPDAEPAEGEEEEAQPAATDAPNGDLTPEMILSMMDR

[2] = biological target: T2, CTCF (human (endogenous in 22Rv1)); assay: co-IP; lysate of V16A cells; endogenous CTCF and MYC (Fig. S5e)
[3] = biological target: T2, CTCF (human (endogenous in 22Rv1)); assay: co-IP; lysates of control and MYC-overexpressing 22Rv1 cells; anti-CTCF or anti-MYC antibody on protein A/G beads, rabbit IgG isotype control; IP binding buffer 5 mM Tris-HCl pH 7.4, 150 mM NaCl, 1 mM EDTA, 1% Triton X-100, 5% glycerol; overnight at 4 °C; Western blot
GST-MYC = GST-MYC (UniProt P01106); assay: pull-down; GST or GST-MYC immobilised on glutathione beads; incubated with Flag-CTCF expressed in 22Rv1 cells (lysate) for 4 h at 4 °C; washed five times with cold PBS; Western blot with anti-Flag or anti-MAX; only the target purified

binding (Flag-CTCF): binds
Molecule: GFP-MYC (from UniProt P01106 1-454)

binding [1]: binds
binding [2]: binds
binding [3]: binds
Molecule: MYC (from UniProt P01106 1-454)

binding [3]: binds
Molecule: MYC overexpressed from pLVX-MYC (from UniProt P01106 1-454)

binding (GST-MYC): binds
B1: Flag-CTCF (protein, UniProt P49711 1-727)
chain: MEGDAVEAIVEESETFIKGKERKTYQRRREGGQEEDACHLPQNQTDGGEVVQDVNSSVQMVMMEQLDPTLLQMKTEVMEGTVAPEAEAAVDDTQIITLQVVNMEEQPINIGELQLVQVPVPVTVPVATTSVEELQGAYENEVSKEGLAESEPMICHTLPLPEGFQVVKVGANGEVETLEQGELPPQEDPSWQKDPDYQPPAKKTKKTKKSKLRYTEEGKDVDVSVYDFEEEQQEGLLSEVNAEKVVGNMKPPKPTKIKKKGVKKTFQCELCSYTCPRRSNLDRHMKSHTDERPHKCHLCGRAFRTVTLLRNHLNTHTGTRPHKCPDCDMAFVTSGELVRHRRYKHTHEKPFKCSMCDYASVEVSKLKRHIRSHTGERPFQCSLCSYASRDTYKLKRHMRTHSGEKPYECYICHARFTQSGTMKMHILQKHTENVAKFHCPHCDTVIARKSDLGVHLRKQHSYIEQGKKCRYCDAVFHERYALIQHQKSHKNEKRFKCDQCDYACRQERHMIMHKRTHTGEKPYACSHCDKTFRQKQLLDMHFKRYHDPNFVPAAFVCSKCGKTFTRRNTMARHADNCAGPDGVEGENGGETKKSKRGRKRKMRSKKEDSSDSENAEPDLDDNEDEEEPAVEIEPEPEPQPVTPAPPPAKKRRGRPPGRTNQPKQNQPTAIIQVEDQNTGAIENIIVEVKKEPDAEPAEGEEEEAQPAATDAPNGDLTPEMILSMMDR
